Results are given in words; binding and its absence hold for the method and conditions named. In cells and extracts the contact can be indirect. Some binding calls cover weakened binding; strength is not graded here.
Columns and labels:
[1] = target: protein phosphatase SHP-1 (mouse (endogenous in BMMCs)) (UniProt P29351); assay: co-IP; endogenous proteins of nonactivated or antigen-activated (250 ng/ml) BMMCs; lysis on ice in 25 mM Tris-HCl pH 7.5, 140 mM NaCl, 1 mM Na3VO4, 2 mM EDTA, protease inhibitors, 0.5% Triton X-100; antibodies to LYN, CSK or SHP-1 prebound to UltraLink-immobilized protein A; immunoblot
[2] = target: C-terminal Src kinase (CSK) (mouse (endogenous in BMMCs)) (UniProt P41241); assay: as above

Sequences of proteins named here, by UniProt entry; tags and fusion partners are left off.
UniProt P29351: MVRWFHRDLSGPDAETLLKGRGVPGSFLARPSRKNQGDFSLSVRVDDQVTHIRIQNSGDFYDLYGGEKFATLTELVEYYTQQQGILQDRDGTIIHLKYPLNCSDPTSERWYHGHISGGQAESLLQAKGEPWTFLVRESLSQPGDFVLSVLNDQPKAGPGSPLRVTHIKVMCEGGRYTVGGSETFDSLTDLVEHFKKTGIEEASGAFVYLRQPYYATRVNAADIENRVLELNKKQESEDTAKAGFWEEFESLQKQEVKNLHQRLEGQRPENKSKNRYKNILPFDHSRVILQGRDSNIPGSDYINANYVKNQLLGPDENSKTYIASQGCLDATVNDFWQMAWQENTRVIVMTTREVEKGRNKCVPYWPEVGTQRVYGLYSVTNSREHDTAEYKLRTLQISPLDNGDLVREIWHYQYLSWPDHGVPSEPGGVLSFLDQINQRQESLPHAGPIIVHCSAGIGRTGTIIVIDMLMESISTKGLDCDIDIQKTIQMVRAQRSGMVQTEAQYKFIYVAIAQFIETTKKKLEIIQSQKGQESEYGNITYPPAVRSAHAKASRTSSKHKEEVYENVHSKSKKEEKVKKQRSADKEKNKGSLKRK
UniProt P41241: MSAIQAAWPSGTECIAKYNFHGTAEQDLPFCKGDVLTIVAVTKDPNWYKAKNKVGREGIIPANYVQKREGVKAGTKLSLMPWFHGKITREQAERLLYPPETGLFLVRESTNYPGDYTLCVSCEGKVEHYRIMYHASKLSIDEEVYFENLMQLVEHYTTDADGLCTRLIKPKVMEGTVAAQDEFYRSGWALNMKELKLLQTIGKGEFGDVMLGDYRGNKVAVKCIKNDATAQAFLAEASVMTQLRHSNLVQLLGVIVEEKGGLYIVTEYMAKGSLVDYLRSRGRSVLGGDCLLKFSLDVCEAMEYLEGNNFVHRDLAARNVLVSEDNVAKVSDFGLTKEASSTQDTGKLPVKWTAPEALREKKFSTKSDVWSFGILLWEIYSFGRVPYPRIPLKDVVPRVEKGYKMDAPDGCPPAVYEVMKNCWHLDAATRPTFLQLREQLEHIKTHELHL

Substance	binding [1]	binding [2]
C-terminal Src kinase (CSK) (from UniProt P41241 1-450) (enzyme)	binds	–
protein phosphatase SHP-1 (from UniProt P29351 1-595) (enzyme)	–	binds

Source: publication PMC6082945
